# Some of these results come from one statement about several compounds together.
# Test system: P388 and P388/ADR (doxorubicin-resistant) cells
# Test: Cross-resistance, cytotoxicity in P388 and P388/ADR cells
# Assay type: cell-based, mouse
# Conditions: cytotoxicity in P388/ADR (doxorubicin-resistant) versus P388 cells
# Description: Compounds 2A, 9A, and 12A were tested for cross-resistance in the P388 (mouse leukemia) cell line, by assaying its cytotoxicity in both P388 and P388/ADR (doxorubicin-resistant) cells. […] Several of the more cytotoxic compounds of formula A were tested and found not to be substrates for P-glycoprotein, an efflux pump commonly associated with multidrug-resistance in cancer cells.
row,Compound,resistance ratio
1,COc1ccc(Nc2sc(C(=O)c3ccc(Cl)cc3)c(N)c2C#N)cc1 [Compound 2A],less than 2 fold
2,CCN(CC)c1ccc(C(=O)c2sc(Nc3ccc4c(c3)OCO4)c(C#N)c2N)cc1 [Compound 9A],less than 2 fold
3,COc1ccc(Nc2sc(C(=O)c3ccc(OC)cc3)c(N)c2C#N)cc1 [Compound 12A],less than 2 fold

# Source: patent publication US8410163B2, “Substituted 4-amino-5-benzoyl-2-(phenylamino)thiophene-3-carbonitriles and substituted 4-amino-5-benzoyl-2-(phenylamino)thiophene-3-carboxamides as tubulin polymerization inhibitors” (Telik, Inc., priority 2009, dated 2013)
